This is one part of the list.
Legend:
Assay in all cases: glycan array binding signal (z-score within array); higher = stronger binding
Conditions in all cases: glycan notation: IUPAC condensed, linker removed
Gal(a1-3)GalNAc = target: Gal(a1-3)GalNAc
Method in brief: (§1)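 The Consortium for Functional Glycomics database supplied 3228 glycan arrays, of which those lacking an available protein sequence were dropped. The binding signal, a within-array Z-score, was averaged across arrays of the same protein sequence and across linkers. Negative scores can be read as non-binding.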

[1] = target: Gal(a1-3)[Gal(a1-4)]Gal(b1-4)GlcNAc
Method in brief: as §1

[2] = target: Gal(a1-4)Gal(b1-3)GlcNAc(b1-2)Man(a1-3)[Gal(a1-4)Gal(b1-3)GlcNAc(b1-2)Man(a1-6)]Man(b1-4)GlcNAc(b1-4)GlcNAc
Method in brief: as §1

Gal(a1-4)Gal(b1-4)Glc = target: Gal(a1-4)Gal(b1-4)Glc
Method in brief: as §1

Gal(a1-4)Gal(b1-4)GlcNAc = target: Gal(a1-4)Gal(b1-4)GlcNAc
Method in brief: as §1

[3] = target: Gal(a1-4)Gal(b1-4)GlcNAc(b1-2)Man(a1-3)[Gal(a1-4)Gal(b1-4)GlcNAc(b1-2)Man(a1-6)]Man(b1-4)GlcNAc(b1-4)GlcNAc
Method in brief: as §1

[4] = target: Gal(a1-4)Gal(b1-4)GlcNAc(b1-3)Gal(b1-4)Glc
Method in brief: as §1

Gal(a1-4)GlcNAc = target: Gal(a1-4)GlcNAc
Method in brief: as §1

Gal(a1-6)Glc = target: Gal(a1-6)Glc
Method in brief: as §1

Gal(b1-2)Gal = target: Gal(b1-2)Gal
Method in brief: as §1

Gal(b1-3)Gal = target: Gal(b1-3)Gal
Method in brief: as §1

Gal(b1-3)Gal(b1-4)GlcNAc = target: Gal(b1-3)Gal(b1-4)GlcNAc
Method in brief: as §1

Gal(b1-3)GalNAc = target: Gal(b1-3)GalNAc
Method in brief: as §1

[5] = target: Gal(b1-3)GalNAc(a1-3)[Fuc(a1-2)]Gal(b1-4)Glc
Method in brief: as §1

[6] = target: Gal(b1-3)GalNAc(a1-3)[Fuc(a1-2)]Gal(b1-4)GlcNAc
Method in brief: as §1

Gal(b1-3)GalNAc(b1-3)Gal = target: Gal(b1-3)GalNAc(b1-3)Gal
Method in brief: as §1

[7] = target: Gal(b1-3)GalNAc(b1-3)Gal(a1-4)Gal(b1-4)Glc
Method in brief: as §1

[8] = target: Gal(b1-3)GalNAc(b1-4)Gal(b1-4)Glc
Method in brief: as §1

[9] = target: Gal(b1-3)GalNAc(b1-4)[Neu5Ac(a2-3)]Gal(b1-4)Glc
Method in brief: as §1

Gal(b1-3)GlcNAc = target: Gal(b1-3)GlcNAc
Method in brief: as §1

[10] = target: Gal(b1-3)GlcNAc(a1-3)Gal(b1-4)GlcNAc
Method in brief: as §1

[11] = target: Gal(b1-3)GlcNAc(a1-6)Gal(b1-4)GlcNAc
Method in brief: as §1

Gal(b1-3)GlcNAc(b1-2)Man = target: Gal(b1-3)GlcNAc(b1-2)Man
Method in brief: as §1

[12] = target: Gal(b1-3)GlcNAc(b1-2)Man(a1-3)[Gal(b1-3)GlcNAc(b1-2)Man(a1-6)]Man(b1-4)GlcNAc(b1-4)GlcNAc
Method in brief: as §1

[13] = target: Gal(b1-3)GlcNAc(b1-2)Man(a1-3)[Gal(b1-3)GlcNAc(b1-2)Man(a1-6)]Man(b1-4)GlcNAc(b1-4)[Fuc(a1-6)]GlcNAc
Method in brief: as §1

[14] = target: Gal(b1-3)GlcNAc(b1-2)Man(a1-3)[GlcNAc(b1-4)][Gal(b1-3)GlcNAc(b1-2)Man(a1-6)]Man(b1-4)GlcNAc(b1-4)GlcNAc
Method in brief: as §1

[15] = target: Gal(b1-3)GlcNAc(b1-2)[Gal(b1-3)GlcNAc(b1-6)]Man(a1-6)[Gal(b1-3)GlcNAc(b1-2)Man(a1-3)]Man(b1-4)GlcNAc(b1-4)GlcNAc
Method in brief: as §1

[16] = target: Gal(b1-3)GlcNAc(b1-3)Gal(b1-3)GlcNAc
Method in brief: as §1

[17] = target: Gal(b1-3)GlcNAc(b1-3)Gal(b1-4)Glc
Method in brief: as §1

[18] = target: Gal(b1-3)GlcNAc(b1-3)Gal(b1-4)GlcNAc
Method in brief: as §1

[19] = target: Gal(b1-3)GlcNAc(b1-3)Gal(b1-4)GlcNAc(b1-2)Man(a1-3)[Gal(b1-3)GlcNAc(b1-3)Gal(b1-4)GlcNAc(b1-2)Man(a1-6)]Man(b1-4)GlcNAc(b1-4)GlcNAc
Method in brief: as §1

[20] = target: Gal(b1-3)GlcNAc(b1-3)Gal(b1-4)GlcNAc(b1-2)[Gal(b1-3)GlcNAc(b1-3)Gal(b1-4)GlcNAc(b1-6)]Man(a1-6)[Gal(b1-3)GlcNAc(b1-3)Gal(b1-4)GlcNAc(b1-2)Man(a1-3)]Man(b1-4)GlcNAc(b1-4)[Fuc(a1-6)]GlcNAc
Method in brief: as §1

[21] = target: Gal(b1-3)GlcNAc(b1-3)Gal(b1-4)GlcNAc(b1-3)Gal(b1-4)GlcNAc(b1-2)[Gal(b1-3)GlcNAc(b1-3)Gal(b1-4)GlcNAc(b1-3)Gal(b1-4)GlcNAc(b1-6)]Man(a1-6)[Gal(b1-3)GlcNAc(b1-3)Gal(b1-4)GlcNAc(b1-3)Gal(b1-4)GlcNAc(b1-2)Man(a1-3)]Man(b1-4)GlcNAc(b1-4)[Fuc(a1-6)]GlcNAc
Method in brief: as §1

[22] = target: Gal(b1-3)GlcNAc(b1-3)Gal(b1-4)GlcNAc(b1-6)[Gal(b1-3)GlcNAc(b1-3)]Gal(b1-4)Glc
Method in brief: as §1

[23] = target: Gal(b1-3)GlcNAc(b1-3)Gal(b1-4)[Fuc(a1-3)]GlcNAc
Method in brief: as §1

[24] = target: Gal(b1-3)GlcNAc(b1-3)Gal(b1-4)[Fuc(a1-3)]GlcNAc(b1-6)[Gal(b1-3)GlcNAc(b1-3)]Gal(b1-4)Glc
Method in brief: as §1

[25] = target: Gal(b1-3)GlcNAc(b1-3)GalNAc
Method in brief: as §1

[26] = target: Gal(b1-3)GlcNAc(b1-6)Gal(b1-4)GlcNAc
Method in brief: as §1

B1: Epa20 (Candida glabrata) (protein)
chain: MGSSHHHHHHSSGLVPRGSHMASSNIPNNYPLGCSNKYSGHLPGLKMELYSYNYVNPRHPDPQNPGKLDQLYDPNLLGTYECFDSSYKDINYPRVGYKSKTLIGRSDGVSGILNFNFVPPWGCMPQKGQLPPAYNFKSNITLSNFTMILFGYFKPKISGNHIFSLHGDDLIYLNFGAGNAFDCCRQESSADNFGNYQAFSLWGINWEKKTLTVYLDMNTYYPIRIFYNNRDYQAIFNFSFKTEFDSSPVIDFQDYFFFLRDIDGGCPGEV
Gal(a1-3)GalNAc
  glycan array binding signal (z-score): -0.523
[1]
  glycan array binding signal (z-score): -0.118
[2]
  glycan array binding signal (z-score): 0.501
Gal(a1-4)Gal(b1-4)Glc
  glycan array binding signal (z-score): 0.322
Gal(a1-4)Gal(b1-4)GlcNAc
  glycan array binding signal (z-score): -0.012
[3]
  glycan array binding signal (z-score): 0.056
[4]
  glycan array binding signal (z-score): 0.122
Gal(a1-4)GlcNAc
  glycan array binding signal (z-score): 0.65
Gal(a1-6)Glc
  glycan array binding signal (z-score): 0.355
Gal(b1-2)Gal
  glycan array binding signal (z-score): -0.763
Gal(b1-3)Gal
  glycan array binding signal (z-score): -0.307
Gal(b1-3)Gal(b1-4)GlcNAc
  glycan array binding signal (z-score): 0.325
Gal(b1-3)GalNAc
  glycan array binding signal (z-score): -0.365
[5]
  glycan array binding signal (z-score): -0.089
[6]
  glycan array binding signal (z-score): -0.045
Gal(b1-3)GalNAc(b1-3)Gal
  glycan array binding signal (z-score): 0.604
[7]
  glycan array binding signal (z-score): -0.044
[8]
  glycan array binding signal (z-score): 0.899
[9]
  glycan array binding signal (z-score): 0.64
Gal(b1-3)GlcNAc
  glycan array binding signal (z-score): -0.446
[10]
  glycan array binding signal (z-score): -0.351
[11]
  glycan array binding signal (z-score): -0.498
Gal(b1-3)GlcNAc(b1-2)Man
  glycan array binding signal (z-score): 0.049
[12]
  glycan array binding signal (z-score): 0.704
[13]
  glycan array binding signal (z-score): 1.2
[14]
  glycan array binding signal (z-score): -0.184
[15]
  glycan array binding signal (z-score): -0.523
[16]
  glycan array binding signal (z-score): -0.177
[17]
  glycan array binding signal (z-score): -0.669
[18]
  glycan array binding signal (z-score): -0.396
[19]
  glycan array binding signal (z-score): -0.166
[20]
  glycan array binding signal (z-score): 0.537
[21]
  glycan array binding signal (z-score): 1.27
[22]
  glycan array binding signal (z-score): -0.164
[23]
  glycan array binding signal (z-score): -0.421
[24]
  glycan array binding signal (z-score): -0.689
[25]
  glycan array binding signal (z-score): -0.065
[26]
  glycan array binding signal (z-score): -0.042
